Values joined by “and” are separate entries in the source; they are usually repeats but may differ in a detail not shown here. Equal entries are not always repeated. ± gives the standard deviation of the averaged measurements. The full ranking holds about 3,800 compounds; the median of “cell shape (eccentricity) Z-score vs DMSO control” is about 1.1, and the lowest 2% start at about -4.7. This is one part of the list.
system: human monocyte-derived macrophages (M0); assay: cell shape (eccentricity) Z-score vs DMSO control; higher = more elongated, M2-like morphology; conditions: 20 µM; 24 h; macrophage state: M0 (M-CSF)

| SMILES | cell shape (Z-score) |
| --- | --- |
| Cc1cccc(N(C)C(=S)Oc2ccc3ccccc3c2)c1 | 0.156 |
| N=C1SC(=Cc2c[nH]nc2-c2ccc(F)cc2)C(=O)N1c1nccs1 | 0.227 |
| O=C(O[C@@H]1Cc2c(O)cc(O)cc2O[C@@H]1c1ccc(O)c(O)c1)c1cc(O)c(O)c(O)c1 | 1.98 |
| CNc1cc(OC)c(C(=O)N[C@@H]2CCN(Cc3ccccc3)[C@H]2C)cc1Cl | -0.0116 |
| CN(C)CCOc1ccc(/C(=C(/CCCl)c2ccccc2)c2ccccc2)cc1 | 2.07 |
| CC1=C(CC(=O)O)c2cc(F)ccc2/C1=C\c1ccc(S(C)=O)cc1 (configuration not stated) | 1.92 |
| Cc1cc(Nc2ncc3c(n2)N(C)C(=O)N(c2cc(NC(=O)c4cccc(C(F)(F)F)c4)ccc2C)C3)n(C)n1 | 29.7 |
| CC(=O)NC1CCN(C(=O)Nc2cc(-c3cccs3)ccc2N)CC1 | 8.82 |
| CCC[C@@H]1C[C@@H](C(=O)N[C@H]([C@H]2O[C@H](SC)[C@H](O)[C@@H](O)[C@H]2O)[C@H](C)O)N(C)C1 | 1.87 |
| Cc1cc(-c2ccccc2)nnc1NCCN1CCOCC1 | -0.38 |
| COc1cc(O)c2c(c1)O[C@H](c1ccc(O)cc1)[C@@H](O)C2=O | 0.849 |
| CC1CC(=O)C2C(O)(C1)CC(O)C13OC21C(=O)c1cccc(O)c1C3O (configuration not stated) | 3.39 ± 2.6 |
| CC(=O)NCCCN(CCCCN(CCCNC(=O)/C=C/c1ccc(O)cc1)C(C)=O)C(=O)/C=C/c1ccc(O)cc1 | 1.03 |
| Cc1cccc(-c2[nH]c(C(C)(C)C)nc2-c2ccc3nccnc3c2)n1 | 4.84 |
| CCN(CC)CCCCN1c2ccccc2Oc2ccc(Cl)cc21 | 1.58 |
| CCc1cc(O)c(C)c(O)c1C=O | 0.702 ± 3.1 |
| CC(C)NCC(O)c1cc(O)cc(O)c1 (configuration not stated) | -0.105 |
| O=C1CC(c2ccc(O)cc2)Oc2c1c(O)cc(O)c2C1C(=O)c2c(O)cc(O)cc2OC1c1ccc(O)c(O)c1 (configuration not stated) | 2.16 ± 0.28 |
| COCC(=O)O[C@]1(CCN(C)CCCc2nc3ccccc3[nH]2)CCc2cc(F)ccc2[C@@H]1C(C)C | 3.53 |
| c1ccc(-c2n[nH]c3c2oc2ccccc23)cc1 | 0.646 |
| O=C(O)C1CCCN(CCC=C(c2ccccc2)c2ccccc2)C1 (configuration not stated) | 0.298 |

| SMILES | cell shape (Z-score) |
| --- | --- |
| CN(C)c1ccccc1CN1CCCN(Cc2ccccc2N(C)C)C1c1ccncc1 | 0.046 |
| Nc1nc2ccc(Cl)cc2c2nc(-c3ccco3)nn12 | -0.49 |
| COc1ccc([C@H]2Oc3cc(OC)cc(OC)c3C[C@H]2O)cc1 | 3.66 |
| COc1cc2c(cc1OC)[C@@H]1C(=O)c3ccc4c(c3O[C@@H]1CO2)C=CC(C)(C)O4 | 3.13 |
| O=C(Oc1cccc2ccccc12)c1ccccc1 | 2.78 |
| C=C[C@H]1[C@H](O[C@@H]2O[C@H](CO)[C@@H](O)[C@H](O)[C@H]2O)OC=C(C(=O)OC)[C@H]1C[C@@H]1N[C@H](C(=O)O)Cc2c1[nH]c1ccccc21 | -0.0299 ± 0.99 |
| C[C@]12CCC(=O)C=C1CC[C@@H]1C2CC[C@@]2(C)C1CC[C@@H]2C(=O)CO (some centres not stated) | 2.88 |
| CC(=O)OCC(=O)[C@@]1(O)[C@H](C)CC2C3CCC4=CC(=O)C=C[C@]4(C)[C@@]3(F)[C@@H](O)C[C@@]21C (some centres not stated) | -0.917 |
| O=C(O)Cc1ccc(OCCNC[C@H](O)c2ccccc2)cc1 | -2.47 |
| COc1ccccc1N1CCN(CCCNc2cc(=O)n(C)c(=O)n2C)CC1 | 1.39 |
| C[C@@H]1CC[C@]2(C)[C@H](CC[C@@H](O)[C@]2(C)O)[C@@]1(C)CC/C(=C/CO)CO | 0.548 |
| C/C(=C\C=C\[C@@H](C)[C@H]1CC[C@@]2(C)[C@@H]3CCC4C(C)(C)[C@@H](O[C@@H]5O[C@H](CO)[C@@H](O[C@@H]6O[C@@H](C)[C@H](O)[C@@H](O)[C@H]6O)[C@H](O)[C@H]5O[C@@H]5O[C@H](CO[C@@H]6O[C@H](CO)[C@@H](O)[C@H](O)[C@H]6O)[C@@H](O)[C@H](O)[C@H]5O[C@@H]5O[C@@H](C)[C@H](O)[C@@H](O)[C@H]5O)CC[C@@]45C[C@@]35CC[C@]12C)C(=O)N[C@@H]1C(=O)O[C@H](C)[C@@H]1C (some centres not stated) | 0.54 |
| CC(=O)O[C@@H]1CC[C@@]2(C)C(C[C@@H](OC(C)=O)[C@@]3(C)C4=CC(=O)O[C@@H](c5ccoc5)[C@]4(C)CCC23)C1(C)C (some centres not stated) | -1.25 |
| CN1CCN(C(=O)c2nc3ccc(Cl)cc3[nH]2)CC1 | 1.38 |
| CCCC(=O)O | -0.115 |
| COC(=O)C1=CO[C@@H](O[C@@H]2O[C@H](CO)[C@@H](O)[C@H](O)[C@H]2O)[C@@H]2[C@@](C)(O)[C@@H](OC(=O)/C=C/c3ccc(OC)c(O)c3)C[C@]12O | 2.65 |
| CC(C)=CCc1cc(O[C@@H]2O[C@H](CO)[C@@H](O)[C@H](O)[C@H]2O)cc(CC=C(C)C)c1C(O)C(=O)O (some centres not stated) | 1.87 |
| CC(=O)O[C@@H]1CC2C(C)(C)C(=O)C3OC3[C@]2(C)C2CC[C@@]3(C)[C@H](c4ccoc4)OC(=O)C4OC43[C@@]21C (some centres not stated) | -1.17 |
| COc1c(O)cc2oc3cc(O)c(CC=C(C)C)c(O)c3c(=O)c2c1CC=C(C)C | 0.968 |
| CCOc1ccc(NC(=O)CC(C)O)cc1 (configuration not stated) | -1.17 |
| CNCCCN1c2ccccc2CCc2ccccc21 | 2.19 |

Grouped by structure, the entries above containing a Cl atom.

| SMILES | cell shape (Z-score) |
| --- | --- |
| CNc1cc(OC)c(C(=O)N[C@@H]2CCN(Cc3ccccc3)[C@H]2C)cc1Cl | -0.0116 |
| CN(C)CCOc1ccc(/C(=C(/CCCl)c2ccccc2)c2ccccc2)cc1 | 2.07 |
| CCN(CC)CCCCN1c2ccccc2Oc2ccc(Cl)cc21 | 1.58 |
| Nc1nc2ccc(Cl)cc2c2nc(-c3ccco3)nn12 | -0.49 |
| CN1CCN(C(=O)c2nc3ccc(Cl)cc3[nH]2)CC1 | 1.38 |

Following part:

| SMILES | cell shape (Z-score) |
| --- | --- |
| c1ccc(C(O[C@@H]2CCCN(CCc3ccc4c(c3)OCO4)C2)c2ccccc2)cc1 | 2.82 |
| CCN(CC)CCNC(=O)COc1ccc(OC)cc1 | -0.914 |
| CO[C@@]12[C@H](COC(N)=O)C3=C(C(=O)C(C)=C(N)C3=O)N1C[C@@H]1N[C@@H]12 | -1.43 ± 4 |
| CC(N)C(=O)OC(C)(C)Cc1ccc(Cl)cc1 (configuration not stated) | 5.33 |
| O=C(OCc1cccc(O)c1O[C@@H]1O[C@H](CO)[C@@H](O)[C@H](O)[C@H]1O)C1(O)C(=O)C2C=CC1C1C=CC(=O)C(O)(C(=O)OCc3cccc(O)c3O[C@@H]3O[C@H](CO)[C@@H](O)[C@H](O)[C@H]3O)C21 (some centres not stated) | -0.246 |
| COc1ccc(-c2coc3cc(O[C@@H]4O[C@H](CO)[C@@H](O)[C@H](O)[C@H]4O)cc(O)c3c2=O)cc1 | 0.123 |
| N[C@](CC1c2ccccc2Oc2ccccc21)(C(=O)O)[C@H]1C[C@@H]1C(=O)O | 2.77 |
| CC12CCC3c4ccc(OC(=O)c5ccccc5)cc4CCC3C1CCC2O (configuration not stated) | 2.05 |
| Nc1ccc(-c2cccc3c(=O)cc(N4CCOCC4)oc23)cc1 | 3.82 |
| CCOC(=O)[C@H](CCc1ccccc1)N[C@@H](C)C(=O)N1CCC[C@H]1C(=O)O | 2.92 |
| OC[C@H]1O[C@@H](Oc2ccc3c(c2)OC[C@H]2c4cc5c(cc4O[C@@H]32)OCO5)[C@H](O)[C@@H](O)[C@@H]1O | -0.0364 |
| CC(=O)OCC(=O)[C@H]1CCC2C3CC=C4C[C@@H](O)CC[C@]4(C)C3CC[C@@]21C (some centres not stated) | 3.17 |
| CC(=O)Nc1nnc(S(N)(=O)=O)s1 | 1.42 |
| N=C(N)N/N=C\c1c(Cl)cccc1Cl | 1.01 |
| C[C@]12CCC(=O)C=C1CC[C@@H]1[C@@H]2[C@@H](O)C[C@@]2(C)[C@H]1CC[C@]2(O)C(=O)CO | -2.61 |
| O=C(CCCN1CCC(O)(c2ccc(Br)cc2)CC1)c1ccc(F)cc1 | 0.74 |
| COc1cccc2c1C(=O)c1c(O)c3c(c(O)c1C2=O)C[C@@](O)(C(C)=O)C[C@@H]3OC1CC(N)C(O)C(C)O1 (some centres not stated) | 3.34 |
| CNC(=O)c1ccccc1Sc1ccc2c(/C=C/c3ccccn3)n[nH]c2c1 | 6.16 and 7.54 |
| N#CC(OC1OC(COC2OCC(OC(=O)/C=C/c3ccc(OC4OC(CO)C(O)C(O)C4O)cc3)C(O)C2O)C(O)C(O)C1O)c1ccccc1 (configuration not stated) | -1.18 |
| OC(c1cc(C(F)(F)F)nc2c(C(F)(F)F)cccc12)C1CCCCN1 (configuration not stated) | -2.36 ± 0.21 |
| C[C@H](C[C@@H](O)[C@](C)(O)[C@H]1CC[C@@]2(O)C3=CC(=O)[C@@H]4C[C@@H](O)[C@@H](O)C[C@]4(C)C3CC[C@]12C)C(C)(C)O (some centres not stated) | 1.42 |

| SMILES | cell shape (Z-score) |
| --- | --- |
| CCC(Cc1c(I)cc(I)c(N)c1I)C(=O)O (configuration not stated) | -0.923 |
| CC/C=C/c1ccc(C)cc1/C=C/CCCC(=O)O | 0.172 |
| CCCCCCCCc1ccc(CCC(N)(CO)CO)cc1 | -5.98 ± 2.9 |
| C/C=C1/[C@H](O[C@@H]2O[C@H](CO)[C@@H](O)[C@H](O)[C@H]2O)OC=C(C(=O)OC)[C@H]1CC(=O)OCC(C)[C@@H]1C[C@H]2OC(=O)C3=CO[C@@H](O[C@@H]4O[C@H](CO)[C@@H](O)[C@H](O)[C@H]4O)/C(=C/C)[C@@H]3CC(=O)OC[C@@H]1[C@H]2C (some centres not stated) | -0.239 ± 0.36 |
| CC1(C)CC[C@]2(C(=O)O[C@@H]3O[C@H](CO)[C@@H](O)[C@H](O)[C@H]3O)CC[C@]3(C)C(=CCC4[C@@]5(C)C[C@@H](O)[C@H](O)[C@@](C)(CO)C5[C@H](O)C[C@]43C)C2C1 (some centres not stated) | 4.82 ± 3.7 |
| CN1CC[C@@H](c2c(O)cc(O)c3c(=O)cc(-c4ccccc4Cl)oc23)[C@H](O)C1 | 4.23 |
| O=C(Nc1ccccc1)c1cc([N+](=O)[O-])ccc1Cl | -1.03 |
| CC(=O)[C@H]1CCC2C3CC=C4C[C@@H](O)CC[C@]4(C)C3CC[C@@]21C (some centres not stated) | 2.02 |
| C=C(CO)C1Cc2cc(C(C)=O)ccc2O1 (configuration not stated) | 2.37 |
| COC(=O)c1c(-c2cc(OC)c(OC)c(OC)c2)c2ccnc(OCc3ncccn3)c2c(=O)n1Cc1ccnc(C)c1 | 2.89 |
| CC(C)n1cnc2c(NCc3ccccc3)nc(NCCCO)nc21 | 2.35 |
| Oc1ccc(-c2c(-c3ccccc3)nn3c(C(F)(F)F)cc(C(F)(F)F)nc23)cc1 | 1.56 |
| CC(C)c1cc(C(=O)N2Cc3ccc(CN4CCN(C)CC4)cc3C2)c(O)cc1O | -2.27 |
| COc1ccc(C2CC(=O)c3c(O)cc(O)cc3O2)cc1O (configuration not stated) | 0.875 |
| CCC(C)C(OC1OC(C)C(O)C(O)C1O)C(C)C(=O)C(C)/C=C(\C)CC(C)C(O)C(C)C(=O)O (configuration not stated) | -1.69 |
| O=c1oc2cc(O)ccc2s1 | 1.14 |
| Cc1occc(=O)c1CC=O | 1.61 |
| O=c1[nH]c(=O)n([C@H]2CC(O)[C@@H](CO)O2)cc1C(F)(F)F (some centres not stated) | 0.902 |
| COC1CC(OC2C(C)OC(OC3C(C)OC(OC4C(C)OCC(OC5C(O)C(O[C@H]6CC[C@@]7(C)C(=CC[C@]8(O)C7CC(OC(=O)c7ccccc7)[C@@]7(C)[C@]8(O)CC[C@@]7(O)C(C)=O)C6)OC(CO)C5OC5OC(CO)C(O)C(O)C5O)C4OC)CC3OC)CC2OC)OC(C)C1O (some centres not stated) | -3.39 |

Looked up above.
cell shape (Z-score) with CN1CC[C@@H](c2c(O)cc(O)c3c(=O)cc(-c4ccccc4Cl)oc23)[C@H](O)C1 reads 4.23
cell shape (Z-score) with CC/C=C/c1ccc(C)cc1/C=C/CCCC(=O)O reads 0.172

— the supplement of paper PMC7858590
